Laboratory results: the supplement of paper PMC12067093, “Discovery and optimisation of a covalent ligand for TRIM25 and its application to targeted protein ubiquitination” (Chemical Science, 2025)
Some of the results follow.

Chains of the proteins cited; added tags and fusions are not shown. Lines headed by an entry give the natural chain unless they say otherwise; changes in a name come on top.
UniProt O95373, whole entry, looked up: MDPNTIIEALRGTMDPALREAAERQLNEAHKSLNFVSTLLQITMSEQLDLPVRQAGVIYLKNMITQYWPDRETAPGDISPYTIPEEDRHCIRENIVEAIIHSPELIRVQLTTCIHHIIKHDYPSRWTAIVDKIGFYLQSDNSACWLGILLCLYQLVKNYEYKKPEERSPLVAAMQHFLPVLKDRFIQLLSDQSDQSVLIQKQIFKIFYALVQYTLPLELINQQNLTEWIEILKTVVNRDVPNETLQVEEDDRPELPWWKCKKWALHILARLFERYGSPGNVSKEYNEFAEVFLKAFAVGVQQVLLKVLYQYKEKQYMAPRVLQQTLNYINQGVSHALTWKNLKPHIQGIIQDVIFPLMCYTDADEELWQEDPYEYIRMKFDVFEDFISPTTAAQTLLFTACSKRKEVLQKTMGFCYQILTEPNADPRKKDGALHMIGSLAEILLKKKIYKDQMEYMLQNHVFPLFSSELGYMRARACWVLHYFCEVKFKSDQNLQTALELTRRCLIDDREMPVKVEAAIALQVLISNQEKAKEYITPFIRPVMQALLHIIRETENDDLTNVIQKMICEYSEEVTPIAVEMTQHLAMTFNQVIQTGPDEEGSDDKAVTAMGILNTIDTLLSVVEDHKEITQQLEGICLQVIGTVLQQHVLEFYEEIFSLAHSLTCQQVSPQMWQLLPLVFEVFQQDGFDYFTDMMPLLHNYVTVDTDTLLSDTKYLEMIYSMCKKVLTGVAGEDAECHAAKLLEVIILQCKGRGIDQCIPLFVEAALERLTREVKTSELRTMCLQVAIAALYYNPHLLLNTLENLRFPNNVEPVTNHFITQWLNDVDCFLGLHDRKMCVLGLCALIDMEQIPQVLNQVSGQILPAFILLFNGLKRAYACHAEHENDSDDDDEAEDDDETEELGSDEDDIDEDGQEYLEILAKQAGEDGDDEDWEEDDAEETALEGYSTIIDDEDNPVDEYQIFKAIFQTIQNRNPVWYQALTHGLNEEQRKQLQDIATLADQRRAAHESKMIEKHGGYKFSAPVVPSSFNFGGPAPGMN
UniProt Q6DN90: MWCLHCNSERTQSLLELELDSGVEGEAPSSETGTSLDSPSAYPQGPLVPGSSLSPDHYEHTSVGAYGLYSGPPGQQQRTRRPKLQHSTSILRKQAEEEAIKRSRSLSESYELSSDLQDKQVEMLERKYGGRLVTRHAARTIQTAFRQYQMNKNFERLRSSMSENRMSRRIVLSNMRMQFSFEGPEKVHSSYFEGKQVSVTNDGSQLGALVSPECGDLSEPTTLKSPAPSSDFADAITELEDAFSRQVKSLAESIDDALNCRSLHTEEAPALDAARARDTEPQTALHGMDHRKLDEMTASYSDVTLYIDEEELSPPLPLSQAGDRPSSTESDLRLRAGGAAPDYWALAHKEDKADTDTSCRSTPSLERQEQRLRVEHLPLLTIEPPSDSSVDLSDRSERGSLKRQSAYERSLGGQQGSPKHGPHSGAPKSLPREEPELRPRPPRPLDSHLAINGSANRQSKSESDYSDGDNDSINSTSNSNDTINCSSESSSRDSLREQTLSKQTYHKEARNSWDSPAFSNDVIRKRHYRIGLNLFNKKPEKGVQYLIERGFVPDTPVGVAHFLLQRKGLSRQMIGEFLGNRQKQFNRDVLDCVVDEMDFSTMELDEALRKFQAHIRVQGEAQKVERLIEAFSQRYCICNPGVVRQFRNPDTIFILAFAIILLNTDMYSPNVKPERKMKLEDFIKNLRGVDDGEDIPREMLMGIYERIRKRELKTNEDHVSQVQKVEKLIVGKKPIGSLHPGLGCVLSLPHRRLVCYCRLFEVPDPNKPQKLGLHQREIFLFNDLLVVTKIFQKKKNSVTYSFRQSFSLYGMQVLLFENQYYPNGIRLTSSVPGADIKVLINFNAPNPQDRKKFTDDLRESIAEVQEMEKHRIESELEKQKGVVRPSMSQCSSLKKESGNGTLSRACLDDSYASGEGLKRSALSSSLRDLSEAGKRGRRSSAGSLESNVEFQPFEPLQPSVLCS
UniProt Q68E01, whole entry, looked up: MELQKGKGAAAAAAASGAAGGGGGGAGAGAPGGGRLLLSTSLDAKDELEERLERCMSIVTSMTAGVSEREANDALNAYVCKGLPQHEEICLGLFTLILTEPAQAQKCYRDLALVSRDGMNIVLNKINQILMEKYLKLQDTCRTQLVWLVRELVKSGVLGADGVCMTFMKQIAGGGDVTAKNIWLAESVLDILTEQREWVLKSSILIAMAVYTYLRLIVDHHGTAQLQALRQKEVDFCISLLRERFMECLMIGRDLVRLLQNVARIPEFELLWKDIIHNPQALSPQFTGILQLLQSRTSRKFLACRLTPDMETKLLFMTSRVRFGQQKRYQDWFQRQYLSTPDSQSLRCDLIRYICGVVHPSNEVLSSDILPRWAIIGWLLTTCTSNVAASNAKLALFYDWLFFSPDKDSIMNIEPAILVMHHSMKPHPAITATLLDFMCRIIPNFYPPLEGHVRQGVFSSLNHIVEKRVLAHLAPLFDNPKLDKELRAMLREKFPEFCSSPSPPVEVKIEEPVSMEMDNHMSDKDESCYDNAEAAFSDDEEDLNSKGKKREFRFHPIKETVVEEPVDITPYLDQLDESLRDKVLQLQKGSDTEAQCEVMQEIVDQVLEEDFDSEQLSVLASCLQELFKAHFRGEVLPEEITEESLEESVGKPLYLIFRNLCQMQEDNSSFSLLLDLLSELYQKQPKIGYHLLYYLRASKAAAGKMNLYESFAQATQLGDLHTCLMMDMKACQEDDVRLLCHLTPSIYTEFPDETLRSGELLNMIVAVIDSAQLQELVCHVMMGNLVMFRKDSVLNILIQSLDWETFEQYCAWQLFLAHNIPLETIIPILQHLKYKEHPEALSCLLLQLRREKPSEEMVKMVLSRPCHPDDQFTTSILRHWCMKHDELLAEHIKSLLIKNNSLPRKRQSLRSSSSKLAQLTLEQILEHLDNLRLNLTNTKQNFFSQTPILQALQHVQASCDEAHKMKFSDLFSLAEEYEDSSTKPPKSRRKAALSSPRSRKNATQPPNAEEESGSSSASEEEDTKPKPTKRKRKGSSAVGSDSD
UniProt Q13568: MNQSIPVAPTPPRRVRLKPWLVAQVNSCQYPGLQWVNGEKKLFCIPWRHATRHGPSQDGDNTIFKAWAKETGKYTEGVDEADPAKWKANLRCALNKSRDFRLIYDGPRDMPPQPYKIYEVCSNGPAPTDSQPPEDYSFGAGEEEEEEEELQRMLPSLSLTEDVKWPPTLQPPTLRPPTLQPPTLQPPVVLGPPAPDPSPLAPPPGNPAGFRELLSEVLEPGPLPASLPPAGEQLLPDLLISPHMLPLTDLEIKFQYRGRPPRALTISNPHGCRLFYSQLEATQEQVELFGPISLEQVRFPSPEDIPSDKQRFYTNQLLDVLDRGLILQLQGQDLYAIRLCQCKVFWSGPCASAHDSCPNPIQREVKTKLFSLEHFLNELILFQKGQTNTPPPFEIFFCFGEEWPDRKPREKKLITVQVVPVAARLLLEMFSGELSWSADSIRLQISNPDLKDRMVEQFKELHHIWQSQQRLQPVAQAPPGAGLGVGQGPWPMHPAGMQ
UniProt Q8WZA9: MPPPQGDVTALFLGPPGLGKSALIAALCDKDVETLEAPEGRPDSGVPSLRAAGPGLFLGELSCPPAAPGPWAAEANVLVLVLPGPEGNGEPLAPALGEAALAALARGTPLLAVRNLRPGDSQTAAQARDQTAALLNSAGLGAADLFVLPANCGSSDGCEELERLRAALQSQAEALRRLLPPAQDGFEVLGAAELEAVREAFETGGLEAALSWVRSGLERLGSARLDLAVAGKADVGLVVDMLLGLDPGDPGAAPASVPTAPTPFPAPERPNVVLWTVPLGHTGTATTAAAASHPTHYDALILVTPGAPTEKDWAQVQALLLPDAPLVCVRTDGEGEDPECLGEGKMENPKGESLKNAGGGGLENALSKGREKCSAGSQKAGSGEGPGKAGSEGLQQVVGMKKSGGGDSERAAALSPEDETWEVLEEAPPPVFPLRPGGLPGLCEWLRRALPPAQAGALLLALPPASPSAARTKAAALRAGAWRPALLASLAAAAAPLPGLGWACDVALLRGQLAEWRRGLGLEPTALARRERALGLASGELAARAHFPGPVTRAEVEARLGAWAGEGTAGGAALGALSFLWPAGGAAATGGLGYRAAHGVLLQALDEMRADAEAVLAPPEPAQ
UniProt Q86VI3: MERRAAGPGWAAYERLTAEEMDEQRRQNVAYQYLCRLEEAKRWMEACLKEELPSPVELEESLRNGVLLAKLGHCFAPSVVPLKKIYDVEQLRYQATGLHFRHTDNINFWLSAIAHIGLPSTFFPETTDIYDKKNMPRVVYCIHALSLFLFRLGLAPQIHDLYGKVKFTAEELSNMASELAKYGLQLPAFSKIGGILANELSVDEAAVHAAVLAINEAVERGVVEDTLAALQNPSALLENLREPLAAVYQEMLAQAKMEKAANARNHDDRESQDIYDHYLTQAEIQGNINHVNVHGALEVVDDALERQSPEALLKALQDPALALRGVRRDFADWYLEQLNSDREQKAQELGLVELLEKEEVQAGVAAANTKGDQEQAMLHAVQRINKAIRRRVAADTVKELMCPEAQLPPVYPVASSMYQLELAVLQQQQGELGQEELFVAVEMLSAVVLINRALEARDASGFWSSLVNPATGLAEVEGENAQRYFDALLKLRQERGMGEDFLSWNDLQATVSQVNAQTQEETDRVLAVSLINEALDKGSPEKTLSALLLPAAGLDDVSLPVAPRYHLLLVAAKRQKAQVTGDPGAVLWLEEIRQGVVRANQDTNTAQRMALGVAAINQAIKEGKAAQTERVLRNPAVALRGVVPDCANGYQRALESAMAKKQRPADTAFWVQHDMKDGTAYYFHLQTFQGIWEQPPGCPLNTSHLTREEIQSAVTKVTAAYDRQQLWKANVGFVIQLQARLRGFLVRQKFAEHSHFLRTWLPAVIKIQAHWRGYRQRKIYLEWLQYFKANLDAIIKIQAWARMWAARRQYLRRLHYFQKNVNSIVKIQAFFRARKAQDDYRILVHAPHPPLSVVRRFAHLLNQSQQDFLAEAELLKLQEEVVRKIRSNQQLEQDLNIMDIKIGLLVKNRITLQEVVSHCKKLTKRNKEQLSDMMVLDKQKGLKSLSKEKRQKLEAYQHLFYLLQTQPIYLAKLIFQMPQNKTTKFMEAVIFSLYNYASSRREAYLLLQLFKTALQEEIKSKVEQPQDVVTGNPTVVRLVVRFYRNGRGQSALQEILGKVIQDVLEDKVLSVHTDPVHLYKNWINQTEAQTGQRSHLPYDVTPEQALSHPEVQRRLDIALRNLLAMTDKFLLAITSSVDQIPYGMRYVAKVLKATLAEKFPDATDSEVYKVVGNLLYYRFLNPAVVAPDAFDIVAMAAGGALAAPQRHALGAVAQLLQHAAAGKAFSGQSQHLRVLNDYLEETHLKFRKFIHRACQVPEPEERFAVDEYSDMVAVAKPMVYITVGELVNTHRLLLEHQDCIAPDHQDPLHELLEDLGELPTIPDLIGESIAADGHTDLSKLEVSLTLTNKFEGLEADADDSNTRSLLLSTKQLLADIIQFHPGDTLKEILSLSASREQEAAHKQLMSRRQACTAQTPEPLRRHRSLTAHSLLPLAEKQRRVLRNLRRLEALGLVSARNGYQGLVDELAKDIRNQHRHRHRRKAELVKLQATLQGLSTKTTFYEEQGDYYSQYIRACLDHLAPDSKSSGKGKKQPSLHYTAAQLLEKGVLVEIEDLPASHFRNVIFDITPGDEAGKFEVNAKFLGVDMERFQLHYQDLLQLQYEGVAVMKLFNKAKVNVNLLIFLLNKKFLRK
UniProt P05107, whole entry, looked up: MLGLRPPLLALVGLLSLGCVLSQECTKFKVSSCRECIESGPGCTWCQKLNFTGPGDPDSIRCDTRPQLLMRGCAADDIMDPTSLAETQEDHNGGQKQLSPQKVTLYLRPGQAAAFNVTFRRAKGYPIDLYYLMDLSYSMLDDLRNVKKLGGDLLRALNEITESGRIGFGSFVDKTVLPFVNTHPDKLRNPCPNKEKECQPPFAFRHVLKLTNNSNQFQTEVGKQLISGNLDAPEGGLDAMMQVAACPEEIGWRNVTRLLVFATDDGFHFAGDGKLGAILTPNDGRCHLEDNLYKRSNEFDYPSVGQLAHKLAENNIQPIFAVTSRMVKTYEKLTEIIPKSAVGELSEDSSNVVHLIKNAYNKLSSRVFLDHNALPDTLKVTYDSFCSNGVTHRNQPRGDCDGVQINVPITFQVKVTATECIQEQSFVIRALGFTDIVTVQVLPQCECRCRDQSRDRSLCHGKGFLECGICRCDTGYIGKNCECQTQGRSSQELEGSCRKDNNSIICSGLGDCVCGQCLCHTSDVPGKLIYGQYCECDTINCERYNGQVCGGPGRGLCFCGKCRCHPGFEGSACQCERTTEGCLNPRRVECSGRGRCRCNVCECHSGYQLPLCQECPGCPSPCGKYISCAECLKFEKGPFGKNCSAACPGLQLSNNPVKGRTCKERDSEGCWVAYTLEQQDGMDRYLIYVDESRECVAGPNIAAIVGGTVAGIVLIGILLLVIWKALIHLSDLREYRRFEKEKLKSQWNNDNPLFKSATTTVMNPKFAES

What follows are targets tested with Cc1cc(ccc1-c1ccccc1)C(=O)N1CCCN(CC1)C(=O)CCl [compound 10] (assay: probe-labelled cysteine peptide fold change vs DMSO (competition) (log2 fold change); higher = less target engagement (more negative = stronger competition)). Details: 10 µM; THP-1; incubation time: 4 h.
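Note: competitive profiling in live THP-1 cells: cysteine peptides tagged with an iodoacetamide desthiobiotin (IA-DTB) probe, intensity after compound treatment relative to DMSO-treated cells.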

Target	probe-labelled cysteine peptide fold change
ITGB1BP1_O14713_60_SSGQSNNNSDTCAEFR (UniProt O14713)	-0.232
IRF8_Q02556_306_VFCSGNAVVCK (UniProt Q02556)	-0.096
ITGAX_P20702_848+863_SLHLTCDSAPVGSQGTWSTSCR (UniProt P20702)	0.204
INTS10_Q9NVR2_176_LFVCDVLPLIINNHDVR (UniProt Q9NVR2)	0.0624
IPO7_O95373_477_ACWVLHYFCEVK (UniProt O95373)	-0.562
IPO4_Q8TEX9_459_ACYALENFVENLGPK (UniProt Q8TEX9)	0.15
ITGA5_P08648_156_AHGSSILACAPLYSWR (UniProt P08648)	-0.171
ITPA_Q9BY32_33_KLEEVVQILGDKFPCTLVAQK (UniProt Q9BY32)	0.182
INTS10_Q9NVR2_169_RFPETVVQHGVGLGEALLEAETIEEQESPVNCFR (UniProt Q9NVR2)	0.0259
IPO8_O15397_749_LLEVIILQCK (UniProt O15397)	0.146
INTS4_Q96HW7_109_TAGFSPDCIMDDAINILQNEK (UniProt Q96HW7)	-0.0858
INTS9_Q9NV88_391_QPCVVFTGHPSLR (UniProt Q9NV88)	0.193
INTS1_Q8N201_611_DYVHCLHK (UniProt Q8N201)	0.209
IQGAP1_P46940_524_AQAHAENNEFITWNDIQACVDHVNLVVQEEHER (UniProt P46940)	0.181
ITGA4_P13612_902_ADPHCLNFLCNFGK (UniProt P13612)	-0.0927
IPO5_O00410_473_VQAHAAAALINFTEDCPK (UniProt O00410)	-0.0097
IPO4_Q8TEX9_566+574_AVGEPMRPLAEECCQLGLGLCDQVDDPDLRR (UniProt Q8TEX9)	0.032
ISL2_Q96A47_30_KKPGTAMCVGCGSQIHDQFILR (UniProt Q96A47)	-0.0089
IQSEC1_Q6DN90_260_SLAESIDDALNCR (UniProt Q6DN90)	-0.00351
INTS3_Q68E01_843_YKEHPEALSCLLLQLR (UniProt Q68E01)	-0.0729

Target	probe-labelled cysteine peptide fold change
ITFG2_Q969R8_326_LDVTGNGHEEVVACAWDGQTYIIDHNR (UniProt Q969R8)	0.15
INTS5_Q6P9B9_58_CGLLLLR (UniProt Q6P9B9)	0.0348
IRF5_Q13568_272_ALTISNPHGCR (UniProt Q13568)	0.15
IPO5_O00410_750_GPEYLTQMWHFMCDALIK (UniProt O00410)	0.397
ITPKB_P27987_873_CHEVIGSSLLFIHDKK (UniProt P27987)	-0.0858
IRGQ_Q8WZA9_28_SALIAALCDK (UniProt Q8WZA9)	-0.124
INTS3_Q68E01_498_EKFPEFCSSPSPPVEVK (UniProt Q68E01)	0.0707
IQGAP3_Q86VI3_1411_RQACTAQTPEPLRR (UniProt Q86VI3)	-0.0999
IPO5_O00410_1017_EEAVQTFNYLCDLIESNHPIVLGPNNTNLPK (UniProt O00410)	0.103
ITGB2_P05107_549_YNGQVCGGPGR (UniProt P05107)	-0.00697
ITM2C_Q9NQX7_96_CGVLYEDSLSSQVR (UniProt Q9NQX7)	-0.133
ITGB2_P05107_286_CHLEDNLYKR (UniProt P05107)	-0.146
INSR_P06213_153_NNELCYLATIDWSR (UniProt P06213)	0.0759
IRGQ_Q8WZA9_328_DWAQVQALLLPDAPLVCVR (UniProt Q8WZA9)	-0.00857
INTS13_Q9NVM9_134_ADPECCSILHGLVAAVETLCK (UniProt Q9NVM9)	0.161
IPO7_O95373_90_ETAPGDISPYTIPEEDRHCIR (UniProt O95373)	-0.107
IPO5_O00410_560_TIECISLIGLAVGK (UniProt O00410)	0.166
INTS8_Q75QN2_701_LGQLLAATCK (UniProt Q75QN2)	0.0476
IPO5_O00410_229_HFADLLPGFLQAVNDSCYQNDDSVLK (UniProt O00410)	0.0847

As entered above:
In probe-labelled cysteine peptide fold change, IRF5_Q13568_272_ALTISNPHGCR (UniProt Q13568) shows 0.15
In probe-labelled cysteine peptide fold change, IQGAP3_Q86VI3_1411_RQACTAQTPEPLRR (UniProt Q86VI3) shows -0.0999
